These are yes or no findings as the source states them, for the method shown. Binding seen in cells or lysates may run through a third protein. Some results given as binding are weak or reduced against the parent protein; the word gives no strength.

Amino acid sequences for entries named in this document (tags omitted).
UniProt Q92878: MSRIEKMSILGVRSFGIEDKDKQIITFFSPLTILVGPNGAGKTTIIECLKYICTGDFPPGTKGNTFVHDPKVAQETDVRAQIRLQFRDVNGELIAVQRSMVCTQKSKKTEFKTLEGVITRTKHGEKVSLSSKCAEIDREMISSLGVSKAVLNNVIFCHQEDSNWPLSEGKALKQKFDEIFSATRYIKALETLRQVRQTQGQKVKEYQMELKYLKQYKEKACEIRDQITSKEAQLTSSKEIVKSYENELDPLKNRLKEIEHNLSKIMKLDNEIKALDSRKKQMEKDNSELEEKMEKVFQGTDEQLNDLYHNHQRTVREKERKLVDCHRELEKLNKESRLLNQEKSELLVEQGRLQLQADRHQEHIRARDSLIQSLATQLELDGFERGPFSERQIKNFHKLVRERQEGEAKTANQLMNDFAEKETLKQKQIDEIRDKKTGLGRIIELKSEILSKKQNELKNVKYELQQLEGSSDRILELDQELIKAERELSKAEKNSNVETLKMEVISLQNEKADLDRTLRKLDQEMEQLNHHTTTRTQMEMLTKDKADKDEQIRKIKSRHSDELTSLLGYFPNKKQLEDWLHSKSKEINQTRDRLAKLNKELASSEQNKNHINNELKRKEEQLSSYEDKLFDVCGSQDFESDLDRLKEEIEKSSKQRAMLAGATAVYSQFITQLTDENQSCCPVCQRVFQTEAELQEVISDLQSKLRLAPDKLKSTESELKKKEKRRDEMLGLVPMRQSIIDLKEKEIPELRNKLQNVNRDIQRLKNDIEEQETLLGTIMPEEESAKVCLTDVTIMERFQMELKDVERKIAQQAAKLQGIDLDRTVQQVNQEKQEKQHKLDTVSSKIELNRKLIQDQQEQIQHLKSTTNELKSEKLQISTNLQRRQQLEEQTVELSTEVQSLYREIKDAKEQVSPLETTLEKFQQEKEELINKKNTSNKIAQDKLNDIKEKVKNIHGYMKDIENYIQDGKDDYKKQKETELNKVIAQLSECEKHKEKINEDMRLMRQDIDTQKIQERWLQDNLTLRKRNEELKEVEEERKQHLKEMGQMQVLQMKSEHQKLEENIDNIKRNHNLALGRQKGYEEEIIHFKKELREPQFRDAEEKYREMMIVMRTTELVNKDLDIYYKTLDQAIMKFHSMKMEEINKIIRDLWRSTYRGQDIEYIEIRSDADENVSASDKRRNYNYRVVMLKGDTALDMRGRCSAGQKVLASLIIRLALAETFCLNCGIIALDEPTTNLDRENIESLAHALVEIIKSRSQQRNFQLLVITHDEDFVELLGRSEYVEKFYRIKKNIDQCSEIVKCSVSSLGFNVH
UniProt O60934: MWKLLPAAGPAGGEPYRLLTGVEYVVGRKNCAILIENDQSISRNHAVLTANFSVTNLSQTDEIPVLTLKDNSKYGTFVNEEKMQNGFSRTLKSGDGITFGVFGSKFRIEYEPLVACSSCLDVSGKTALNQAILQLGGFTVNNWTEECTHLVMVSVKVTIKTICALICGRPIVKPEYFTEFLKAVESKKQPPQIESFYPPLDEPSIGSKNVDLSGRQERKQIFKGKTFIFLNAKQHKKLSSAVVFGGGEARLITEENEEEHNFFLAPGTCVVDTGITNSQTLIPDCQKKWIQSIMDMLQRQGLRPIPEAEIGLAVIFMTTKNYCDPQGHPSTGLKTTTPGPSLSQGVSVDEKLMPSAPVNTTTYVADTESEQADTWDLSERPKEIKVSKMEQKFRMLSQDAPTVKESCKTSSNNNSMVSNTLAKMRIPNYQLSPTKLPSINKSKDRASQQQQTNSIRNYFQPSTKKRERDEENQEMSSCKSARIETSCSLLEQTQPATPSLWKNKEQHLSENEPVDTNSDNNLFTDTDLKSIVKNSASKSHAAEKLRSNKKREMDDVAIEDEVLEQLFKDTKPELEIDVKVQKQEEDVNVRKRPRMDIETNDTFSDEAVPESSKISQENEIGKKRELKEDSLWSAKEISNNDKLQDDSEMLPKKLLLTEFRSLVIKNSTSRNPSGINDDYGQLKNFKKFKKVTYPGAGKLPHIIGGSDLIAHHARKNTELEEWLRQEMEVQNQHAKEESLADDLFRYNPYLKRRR

Experimental findings from article PMC12088036 are described below.

The experiment deals with T1, Peroxiredoxin 1 (human (endogenous in HeLa and HEK293)) (UniProt Q06830).
T1 sequence: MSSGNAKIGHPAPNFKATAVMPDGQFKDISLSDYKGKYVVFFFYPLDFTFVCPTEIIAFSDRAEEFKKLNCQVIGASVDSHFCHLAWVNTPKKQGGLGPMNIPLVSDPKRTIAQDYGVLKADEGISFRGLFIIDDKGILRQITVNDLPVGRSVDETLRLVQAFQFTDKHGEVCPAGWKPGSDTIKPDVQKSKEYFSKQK
Briefly: co-IP; anti-PRDX1 antibody on total extracts of HeLa or HEK293 control cells (RIPA buffer, sonicated); lysates pre-treated with DNaseI for 30 min; antibody overnight, protein A/G magnetic beads 2 h at room temperature; 4 washes in PBS with 0.01% Tween 20; western blot; PRDX1-deleted cells as negative control. For orientation: A western blot detects proteins with antibodies after separation by electrophoresis.

Take RAD50 (from UniProt Q92878 1-1312): the binding entry is “binds”.

On to NBS1 (from UniProt O60934 1-754), for which the binding result was “binds”.
